For one substance, binding results are on record in publication PMC3396610.

Chains of the proteins cited; added tags and fusions are not shown.
UniProt P18056: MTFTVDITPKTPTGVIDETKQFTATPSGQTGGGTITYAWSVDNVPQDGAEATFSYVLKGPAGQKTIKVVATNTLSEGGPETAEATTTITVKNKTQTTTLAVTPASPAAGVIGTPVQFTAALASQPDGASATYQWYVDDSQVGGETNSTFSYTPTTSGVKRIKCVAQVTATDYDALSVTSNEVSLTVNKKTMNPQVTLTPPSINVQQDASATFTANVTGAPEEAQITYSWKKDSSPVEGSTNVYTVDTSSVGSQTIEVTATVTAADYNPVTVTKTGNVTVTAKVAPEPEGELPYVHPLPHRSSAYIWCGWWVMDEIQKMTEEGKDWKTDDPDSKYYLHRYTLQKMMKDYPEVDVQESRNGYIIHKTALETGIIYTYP

No constants are given. Whether binding was seen depends on the method and setting.

For the assay, the target named is Highly Immunogenic Outer Capsid Protein (gphoc) of bacteriophage T4 (bacteriophage T4) (UniProt P18056). In words: dynamic light scattering; purified, non-denatured protein preparations; hydrodynamic diameter by Zetasizer Nano, 5 measurements of 15 runs, at least two independent preparations; both purified.

Turning to “Highly Immunogenic Outer Capsid Protein (gphoc) of bacteriophage T4 (from UniProt P18056 1-376)”, the binding entry is “no binding”.
